Measurements from paper PMC11705076.
Results are given in words; binding and its absence hold for the method and conditions named. Binding seen in cells or lysates may run through a third protein. A result given as binding can be weak or reduced; the word gives no strength.

Chains of the proteins cited; added tags and fusions are not shown. Lines headed by an entry give the natural chain unless they say otherwise; changes in a name come on top.
UniProt G4MSW4: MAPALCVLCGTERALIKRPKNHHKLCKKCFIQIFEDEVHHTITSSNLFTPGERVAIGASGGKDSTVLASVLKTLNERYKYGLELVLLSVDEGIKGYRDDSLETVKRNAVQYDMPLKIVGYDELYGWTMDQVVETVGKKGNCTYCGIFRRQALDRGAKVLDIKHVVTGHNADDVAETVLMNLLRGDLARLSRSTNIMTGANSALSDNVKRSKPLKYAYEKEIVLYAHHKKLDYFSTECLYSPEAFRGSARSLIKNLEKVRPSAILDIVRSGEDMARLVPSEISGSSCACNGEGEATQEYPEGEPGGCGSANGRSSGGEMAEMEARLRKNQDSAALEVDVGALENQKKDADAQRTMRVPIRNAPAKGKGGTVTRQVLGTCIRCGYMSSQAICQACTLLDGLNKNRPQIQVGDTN
UniProt G4N7I9: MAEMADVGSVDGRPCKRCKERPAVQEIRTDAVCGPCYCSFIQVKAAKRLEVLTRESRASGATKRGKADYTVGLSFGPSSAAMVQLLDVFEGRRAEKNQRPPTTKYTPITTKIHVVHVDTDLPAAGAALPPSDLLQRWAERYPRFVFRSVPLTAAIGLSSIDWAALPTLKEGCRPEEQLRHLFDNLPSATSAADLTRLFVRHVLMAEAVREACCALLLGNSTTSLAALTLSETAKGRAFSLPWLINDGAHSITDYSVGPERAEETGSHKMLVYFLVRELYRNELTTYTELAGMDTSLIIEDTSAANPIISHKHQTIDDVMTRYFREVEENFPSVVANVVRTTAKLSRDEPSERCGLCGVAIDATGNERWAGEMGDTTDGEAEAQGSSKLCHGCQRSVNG

Target: M. oryzae Ncs6 (Ncs6-GFP) (Magnaporthe oryzae) (UniProt G4MSW4)
Experiment: co-IP

M. oryzae Ncs2 (Ncs2-3xFlag) (from UniProt G4N7I9)
binding: binds
